# Laboratory results from PMC7671478, “Structure of the helicase core of Werner helicase, a key target in microsatellite instability cancers”.
# Protein sequences, listed by entry. Tags and fused reporters are not part of them. Residues count along the entry.
# WRN helicase core (517–1,093) (Q14191, residues 517-1093): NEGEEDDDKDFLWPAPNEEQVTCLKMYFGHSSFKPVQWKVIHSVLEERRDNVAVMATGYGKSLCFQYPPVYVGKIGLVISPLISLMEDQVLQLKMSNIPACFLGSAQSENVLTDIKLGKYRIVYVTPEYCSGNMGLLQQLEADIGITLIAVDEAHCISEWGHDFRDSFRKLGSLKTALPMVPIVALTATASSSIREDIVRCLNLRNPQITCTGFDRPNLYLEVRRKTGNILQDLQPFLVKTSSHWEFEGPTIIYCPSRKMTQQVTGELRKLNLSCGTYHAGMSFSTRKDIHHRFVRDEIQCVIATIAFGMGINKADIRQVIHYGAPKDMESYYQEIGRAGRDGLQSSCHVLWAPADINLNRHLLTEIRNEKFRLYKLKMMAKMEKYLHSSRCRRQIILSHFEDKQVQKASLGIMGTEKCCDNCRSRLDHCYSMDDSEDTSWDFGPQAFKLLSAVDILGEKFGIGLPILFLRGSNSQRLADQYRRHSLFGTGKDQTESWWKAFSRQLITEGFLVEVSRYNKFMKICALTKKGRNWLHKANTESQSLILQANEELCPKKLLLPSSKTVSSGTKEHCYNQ
# WRN helicase (residues 531–950) (Q14191, residues 531-950): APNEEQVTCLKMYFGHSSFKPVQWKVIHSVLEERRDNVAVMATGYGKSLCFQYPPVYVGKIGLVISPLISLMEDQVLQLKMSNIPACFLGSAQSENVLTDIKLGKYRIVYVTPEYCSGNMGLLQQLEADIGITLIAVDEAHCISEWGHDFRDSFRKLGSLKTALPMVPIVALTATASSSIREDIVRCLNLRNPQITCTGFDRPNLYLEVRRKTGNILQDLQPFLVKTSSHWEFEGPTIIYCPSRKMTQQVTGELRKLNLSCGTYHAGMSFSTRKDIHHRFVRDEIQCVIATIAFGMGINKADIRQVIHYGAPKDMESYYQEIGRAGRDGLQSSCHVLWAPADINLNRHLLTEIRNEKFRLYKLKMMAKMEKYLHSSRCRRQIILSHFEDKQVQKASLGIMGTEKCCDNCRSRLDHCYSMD
# WRN HRDC domain (1,142–1,242) (Q14191, residues 1142-1242): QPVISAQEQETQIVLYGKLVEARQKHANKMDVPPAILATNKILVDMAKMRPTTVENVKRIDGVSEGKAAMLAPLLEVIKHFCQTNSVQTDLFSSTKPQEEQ
# No constants are given. Whether binding was seen depends on the method and setting. Some results given as binding are weak or reduced against the parent protein; the word gives no strength.
# Assays:
# [1] = target: WRN HRDC domain (1,142–1,242) (human) (UniProt Q14191); experiment: NMR titration; 1H-15N SoFast HMQC of 30 μM 15N-labelled WRN HRDC without or with 250 μM unlabelled WRN helicase (531–950); Hepes 50 mM pH 7.5, NaCl 300 mM, ATP 1 mM, MgSO4 5 mM, TCEP 1 mM, D2O 10%; 298 K; both purified
# [2] = target: WRN helicase core (517–1,093) (human) (UniProt Q14191); experiment: crystal structure; WRN (517–1,093) co-crystallised with ADP, AlCl3, NaF and MgCl2; 1 M Na Acetate, 0.1 M cacodylate pH 6.5; 2.2 Å; contents of the asymmetric unit; both purified
binding [1],binding [2],Substance
binds weakly,–,WRN helicase (residues 531–950) (from UniProt Q14191 531-950) (domain or fragment)
–,no binding,"WRN helicase core (517–1,093) (from UniProt Q14191 517-1093) (domain or fragment)"
